Measured values as given in patent US12485119B2, “Methods of treating pulmonary arterial hypertension” (ACTELION PHARMACEUTICALS LTD, priority 2019, dated 2025).

Tested on: newly diagnosed, treatment-naïve subjects with PAH
Test: Exposure to study treatments, individual maintenance dose and maximum tolerated dose
Format: in vivo, human
Conditions: up to EOMOP, Safety Set
Description: The starting dose of double-blind selexipag or placebo on Day 15±3 is 200 μg twice daily (in the morning and in the evening). The dose is up-titrated in increments of 200 μg twice daily, usually at weekly intervals (see Table 1), until either a maximum dose of 1600 μg twice daily is reached or adverse pharmacological effects that cannot be tolerated or medically managed are experienced, whichever is first. In the event of adverse effects typical of prostanoid therapy, it is recommended not to discontinue double-blind treatment because these effects are usually transient or manageable with symptomatic treatment. If a dose that cannot be tolerated is reached, the dose should be reduced to the previous dose level.

CC(C)N(CCCCOCC(=O)NS(C)(=O)=O)c1cnc(-c2ccccc2)c(-c2ccccc2)n1 [Selexipag, 2-{4-[(5,6-diphenylpyrazin-2-yl)(propan-2-yl)amino]butoxy}-N-(methanesulfonyl)acetamide]
Individual maintenance dose of double-blind treatment (b.i.d), Mean: 1043.7 µg
Individual maintenance dose of double-blind treatment (b.i.d), Median: 1200.0 µg
Individual maintenance dose of double-blind treatment (b.i.d), Median (listed as selexipag): 1200 µg
